According to US8093068 (Janssen / Centocor, dated 2012):
Results are given in words; binding and its absence hold for the method and conditions named. Some binding calls cover weakened binding; strength is not graded here.

Protein sequences, listed by entry. Tags and fused reporters are not part of them. Residues count along the entry.
UniProt O15455, residues 24-704: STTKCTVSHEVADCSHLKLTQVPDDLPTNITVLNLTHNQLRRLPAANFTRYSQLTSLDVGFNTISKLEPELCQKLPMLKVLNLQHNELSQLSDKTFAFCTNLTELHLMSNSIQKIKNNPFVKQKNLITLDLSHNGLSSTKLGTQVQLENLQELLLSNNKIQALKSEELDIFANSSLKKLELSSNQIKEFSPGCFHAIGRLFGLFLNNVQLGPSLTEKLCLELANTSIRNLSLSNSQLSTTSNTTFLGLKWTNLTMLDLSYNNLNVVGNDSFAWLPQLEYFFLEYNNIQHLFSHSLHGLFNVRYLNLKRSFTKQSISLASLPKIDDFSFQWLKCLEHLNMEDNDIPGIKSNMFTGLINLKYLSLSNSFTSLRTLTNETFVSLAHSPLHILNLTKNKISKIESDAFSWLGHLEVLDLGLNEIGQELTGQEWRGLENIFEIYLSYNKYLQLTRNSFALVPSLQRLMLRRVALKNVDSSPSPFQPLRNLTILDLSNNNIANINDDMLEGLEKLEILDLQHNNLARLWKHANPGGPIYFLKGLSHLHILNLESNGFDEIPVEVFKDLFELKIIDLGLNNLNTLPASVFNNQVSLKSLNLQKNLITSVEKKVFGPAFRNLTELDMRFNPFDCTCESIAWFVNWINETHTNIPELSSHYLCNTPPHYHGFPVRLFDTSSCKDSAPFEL

B1: human-adapted anti-TLR3 mAb LV5/HV5 (antibody, V domains shown)
VH: QVQLVQSGAEVKKPGASVKVSCKASGYTFTTYWIHWVRQATGQGLEWMGEINPNNGRINYNEKFKTRVTMTRNTSISTAYMELSSLRSEDTAVYYCARVGVMITTFPYWGQGTLVTVSS
VL: DIQMTQSPSSLSASVGDRVTITCRASGNIHNYLAWYQQKPGKVPKLLIYNAKTLADGVPSRFSGSGSGTDFTLTISSLQPEDVATYYCQHFWSTPFTFGGGTKVEIK
B2: human-adapted anti-TLR3 mAb LV5/HV4 (printed as LV5/LV4) (antibody, V domains shown)
VH: QVQLVQSGAEVKKPGASVKVSCKASGYTFTTYWIHWVRQAPGQGLEWMGEINPNNGRINYNEKFKTRVTMTRDTSISTAYMELSRLRSDDTAVYYCARVGVMITTFPYWGQGTLVTVSS
VL: DIQMTQSPSSLSASVGDRVTITCRASGNIHNYLAWYQQKPGKVPKLLIYNAKTLADGVPSRFSGSGSGTDFTLTISSLQPEDVATYYCQHFWSTPFTFGGGTKVEIK
B3: human-adapted anti-TLR3 mAb LV1/HV5 (antibody, V domains shown)
VH: QVQLVQSGAEVKKPGASVKVSCKASGYTFTTYWIHWVRQATGQGLEWMGEINPNNGRINYNEKFKTRVTMTRNTSISTAYMELSSLRSEDTAVYYCARVGVMITTFPYWGQGTLVTVSS
VL: DIQMTQSPSSLSASVGDRVTITCRASGNIHNYLAWYQQKPGKAPKLLIYNAKTLADGVPSRFSGSGSGTDFTLTISSLQPEDFATYYCQHFWSTPFTFGQGTKLEIK
B4: human-adapted anti-TLR3 mAb LV1/HV1 (antibody, V domains shown)
VH: QVQLVQSGAEVKKPGASVKVSCKASGYTFTTYWIHWVRQAPGQRLEWMGEINPNNGRINYNEKFKTRVTITRDTSASTAYMELSSLRSEDTAVYYCARVGVMITTFPYWGQGTLVTVSS
VL: DIQMTQSPSSLSASVGDRVTITCRASGNIHNYLAWYQQKPGKAPKLLIYNAKTLADGVPSRFSGSGSGTDFTLTISSLQPEDFATYYCQHFWSTPFTFGQGTKLEIK

What was measured:
[1] = target: soluble human TLR3 extracellular domain (human) (UniProt O15455); experiment: ELISA on coated human TLR3 extracellular domain
[2] = target: T1, soluble human TLR3 extracellular domain (human, UniProt O15455 24-704); experiment: ELISA on coated human TLR3 extracellular domain
T1 construct: extracellular domain; Coated on the ELISA plate; also called hTLR3; extracellular domain of human TLR3

Binder	binding [1]	binding [2]
B1	binds	–
B2	–	binds
B3	–	binds
B4	–	binds
